Patent US20260097122A1 (AUTOLUS, published 2026)
Results are given in words; binding and its absence hold for the method and conditions named. Some results given as binding are weak or reduced against the parent protein; the word gives no strength.

The chains behind the UniProt entries cited, without tags or fusion partners. Residues count along the entry.
UniProt P20273, residues 20-687: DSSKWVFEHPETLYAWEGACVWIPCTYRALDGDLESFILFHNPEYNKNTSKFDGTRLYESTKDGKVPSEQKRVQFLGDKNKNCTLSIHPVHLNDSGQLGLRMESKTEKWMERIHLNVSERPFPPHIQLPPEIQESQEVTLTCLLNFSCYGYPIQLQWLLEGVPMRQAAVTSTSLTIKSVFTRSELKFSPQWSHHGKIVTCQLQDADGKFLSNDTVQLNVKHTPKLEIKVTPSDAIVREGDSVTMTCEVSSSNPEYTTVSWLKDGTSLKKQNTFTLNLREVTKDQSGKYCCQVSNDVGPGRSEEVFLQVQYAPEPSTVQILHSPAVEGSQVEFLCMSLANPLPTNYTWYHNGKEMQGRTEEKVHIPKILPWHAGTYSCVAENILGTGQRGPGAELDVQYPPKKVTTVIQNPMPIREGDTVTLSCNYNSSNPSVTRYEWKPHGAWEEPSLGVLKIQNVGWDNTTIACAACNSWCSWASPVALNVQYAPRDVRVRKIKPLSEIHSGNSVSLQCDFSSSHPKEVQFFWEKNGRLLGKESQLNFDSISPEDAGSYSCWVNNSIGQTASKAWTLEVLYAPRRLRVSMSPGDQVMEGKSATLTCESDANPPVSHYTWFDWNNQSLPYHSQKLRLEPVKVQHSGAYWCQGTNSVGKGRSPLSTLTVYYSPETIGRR

Target: CD22 9A8CAR (aCD22_9A8-1-64_LH_scFv-CD8STK-41BBz)
Test: flow cytometry of CAR T cells, product before injection and mouse bone marrow at day 14; 9A8CAR stained with soluble recombinant CD22 ectodomain [cont.) F]

binding: binds
Substance: recombinant soluble CD22 ectodomain (from UniProt P20273 20-687) (receptor)
